± gives the standard deviation. This is a selection; strong and weak results do not stand in their true shares. The uncertainty is large for many entries.
Legend:
[1] = system: MILI (PIWIL2) piRISC loaded with piRNA #1 (26 nt); assay: pre-steady-state target cleavage rate (min^-1); higher = faster piRNA-guided slicing of the target; settings: guide: piRNA #1 5'p-UGAGGUAGUAGGUUGUAUAGUAUCCA; auxiliary factor: 500 nM mouse GTSF1
Method in brief: (§1)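 Sequencing of uncleaved targets, normalised to depth and to weakly complementary targets, was the readout of this Cleave-'n-Seq assay. A transcribed, DNA-blocked target RNA library (0.1 nM) was mixed with 1 nM active affinity-purified piRISC carrying one synthetic guide, with or without 500 nM GTSF1 partner protein, in HEPES–potassium acetate buffer at 33 °C for 0–8 or 0–960 min. Three trials were pooled, k3 was capped at 0.0001 min^-1, and a burst-and-steady-state fit gave the pre-steady-state cleavage rate.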

[2] = system: MIWI (PIWIL1) piRISC loaded with piRNA #1 (30 nt); assay: as above; settings: guide: piRNA #1 5'p-UGAGGUAGUAGGUUGUAUAGUAUCCAGAGG; auxiliary factor: 500 nM mouse GTSF1
Method in brief: as §1

[3] = system: EfPiwi piRISC loaded with piRNA #1 (26 nt); assay: pre-steady-state target cleavage rate (min^-1); guide: piRNA #1 5'p-UGAGGUAGUAGGUUGUAUAGUAUCCA; MIWI and MILI are mouse PIWI proteins and EfPiwi is from a freshwater sponge; tags in brackets are library labels; higher = faster piRNA-guided slicing of the target; settings: auxiliary factor: 500 nM Ephydatia muelleri Gtsf1
Method in brief: as §1

Sequence | pre-steady-state target cleavage rate [1] | pre-steady-state target cleavage rate [2] | pre-steady-state target cleavage rate [3]
GGAGACCUAACUAUACAACCCUACUACCUCA | 0.000811 ± 0.014 | 0.000158 ± 0.031 | 0.00347 ± 0.0043
GGAGACCUAUGAAUACAACCCUACUACCUCA | 0.0013 ± 0.0049 | 0.000271 ± 0.011 | 0.00071 ± 0.0093
GGAGACCUAUGAUAUGUACCUAGCUACCUCA | 0.000271 ± 0.011 | 0.000136 ± 0.02 | 0.000169 ± 0.018
GGAGACCUAUGAUAACAACCUAGUACCUCA | 0.00226 ± 0.0026 | 0.00142 ± 0.0026 | 0.000556 ± 0.0072
GGAGUGGAUACUAUACAACCUACUUCCACA | 0.000457 ± 0.0054 | 0.000478 ± 0.0076 | 0.00294 ± 0.0024
GGAGACCUAUGAAUACAGACCUACUACCUCA | 0.0006 ± 0.012 | 0.000221 ± 0.014 | 0.000554 ± 0.0089
GGAGAGGAAACUAUACAACGUACUACCUCA | 0.0138 ± 0.0051 | 0.27 ± 0.037 | 0.00339 ± 0.0016
GGAGACCUAUGAUAUGUUGCUAUACCUCA | 0.000285 ± 0.023 | 0.000392 ± 0.016 | 0.000558 ± 0.007
GGAGACCUAUGAUAUGAAGCAACUACCUCA | 0.000484 ± 0.018 | 0.000492 ± 0.015 | 0.000783 ± 0.0073
GGAGACCUAACUAAACAACCAACUACCUCA | 0.00427 ± 0.005 | 0.00167 ± 0.0071 | 0.00149 ± 0.0072
GGAGUAGAUACUAUACAACCUACUACCUCA | 0.186 ± 0.0093 | 1.55 ± 0.074 | 0.158 ± 0.057
GGAGACCUAUGAUAACUACCAACUACCUCA | 0.000916 ± 0.0067 | 0.000145 ± 0.011 | 0.000266 ± 0.013
GGAGACCUAUGAUAUGUUGGUACAACCACA | 0.000417 ± 0.011 | 0.000872 ± 0.0065 | 0.000257 ± 0.012
GGAGACCUAUCUAUACAACCAACAACCUCA | 0.0022 ± 0.0046 | 0.000378 ± 0.011 | 0.000124 ± 0.036
GGAGACCUAUGAUAUCAUCCUAGUACCUCA | 0.000549 ± 0.0098 | 0.000116 ± 0.017 | 0.000183 ± 0.014
GGAGACCUAUGUAUACAACGCUACUACCUCA | 0.000995 ± 0.0071 | 0.000212 ± 0.0097 | 0.00105 ± 0.007
GGAGACCUAUGAAAACAACGUACUACCUCA | 0.00272 ± 0.0028 | 0.000297 ± 0.0083 | 0.00101 ± 0.0076
GGAGACCUAUGAUAUGUACCCUACUACCUCA | 0.00154 ± 0.0033 | 0.000239 ± 0.01 | 0.000657 ± 0.01
GGAGACCUAUGAUAACAACCCUACUACCUCA | 0.000626 ± 0.0087 | 0.000158 ± 0.013 | 0.000587 ± 0.013
GGAGUGGAUACUAUACAACCUACUCCUCA | 0.00253 ± 0.0026 | 0.00158 ± 0.0045 | 0.00475 ± 0.0027
GGAGACGAUACUAUACAACCUACUUGGAGA [g7:g24:cont:t1A] | 0.00154 ± 0.005 | 0.00268 ± 0.005 | 0.00429 ± 0.0022
GGAGACCUAUGAUAACAACCUACUACUUCA | 0.00299 ± 0.0028 | 0.00172 ± 0.0057 | 0.000788 ± 0.0059
GGAGACCUAACUAUACAACCGACUACCUCA | 0.00192 ± 0.0097 | 0.00276 ± 0.0052 | 0.00295 ± 0.005
GGAGACCUAUGAUAACAACCUACUACGAGA | 0.000688 ± 0.009 | 0.000421 ± 0.017 | 0.000837 ± 0.008
GGAGACCUAUGAUUACAACCAACUACCUCA | 0.00212 ± 0.0031 | 0.000174 ± 0.013 | 0.00145 ± 0.0056

Sequence | pre-steady-state target cleavage rate [1] | pre-steady-state target cleavage rate [2] | pre-steady-state target cleavage rate [3]
GGAGACCUAUGAUAUCAACCUACUACCCCA | 0.000794 ± 0.0078 | 0.000341 ± 0.0061 | 0.000869 ± 0.0096
GGAGACCUAUGAUUACAUGGUACUACCUCA | 0.000935 ± 0.0083 | 0.00159 ± 0.0048 | 0.000438 ± 0.0063
GGAGACCUAUGAUAACUUCCUACUACCUCA | 0.000493 ± 0.0071 | 0.000262 ± 0.0077 | 0.000314 ± 0.0086
GGAGACCUAUGAUUACAAGCCUACUACCUCA | 0.000475 ± 0.012 | 0.000196 ± 0.014 | 0.00171 ± 0.0047
GGAGACCUAUGAUUACAACCUAGAUCCUCA | 0.00125 ± 0.0056 | 0.000497 ± 0.0055 | 0.000227 ± 0.0092
GGAGACCUAUGAAAACAACCUACUACCUGA | 0.00141 ± 0.0046 | 0.000925 ± 0.0053 | 0.00104 ± 0.0058
GGAGACCUAUGAAUACAACCUACUACGAGA | 0.00114 ± 0.0057 | 0.000467 ± 0.015 | 0.000618 ± 0.0081
GGAGACCUAUGAUAACAUGCUACUACCUCA | 0.000899 ± 0.0059 | 0.000428 ± 0.0063 | 0.00188 ± 0.0048
GGAGACCUAUGAUAACAACCAACUACGUCA | 0.00104 ± 0.0051 | 0.000226 ± 0.008 | 0.00106 ± 0.0053
GGAGACCUAUGAUAUGUACGUACUACCUCA | 0.000774 ± 0.0062 | 0.000748 ± 0.0049 | 0.000351 ± 0.0056
GGAGACCUAUGAAUACAACCAACUACGUCA | 0.00249 ± 0.0033 | 0.000288 ± 0.0092 | 0.000834 ± 0.0089
GGAGACCUAUGUAUACAACCUACUUCGUCA | 0.0106 ± 0.0032 | 0.00233 ± 0.003 | 0.000178 ± 0.013
GGAGACCUAUGAUAACCACCUACUACCUCA | 0.00152 ± 0.0041 | 0.000266 ± 0.0087 | 0.000595 ± 0.015
GGAGACCUAUGAUAAGAACCAACUACCUCA | 0.000257 ± 0.011 | 0.000102 ± 0.025 | 0.000527 ± 0.011
GGAGACCUAUGAUAACAACCUACUACAUCA | 0.00146 ± 0.0037 | 0.00237 ± 0.0043 | 0.000256 ± 0.0099
GGAGACCUAUGUAUACAACCAACUACGUCA | 0.00241 ± 0.0024 | 0.00183 ± 0.0028 | 0.000947 ± 0.0086
GGAGACCUAUGUAUACGAACCUACUACCUCA | 0.000816 ± 0.0082 | 0.00101 ± 0.0056 | 0.0017 ± 0.0063
GGAGACCUAUGUAUACAACCUACUCACCUCA | 0.0823 ± 0.015 | 0.144 ± 0.027 | 0.000324 ± 0.019
GGAGACCUAUGAUAACAUCCUUCUACCUCA | 0.00239 ± 0.0034 | 0.000309 ± 0.0068 | 0.000378 ± 0.0087
GGAGACCUAUGAUAACACACCUACUACCUCA | 0.000501 ± 0.015 | 0.000145 ± 0.015 | 0.000742 ± 0.01
GGAGACCUAUGUAAACAACCAACUACCUCA | 0.0019 ± 0.004 | 0.000201 ± 0.014 | 0.000197 ± 0.019
GGAGACCUAUGAUAUGUUGGUACAACGUCA | 0.000663 ± 0.0088 | 0.000656 ± 0.0064 | 0.00015 ± 0.011
GGAGACCUAUGAUUACUACCUACUACGUCA | 0.00124 ± 0.0054 | 0.000333 ± 0.0071 | 0.00105 ± 0.0065
GGAGACCUAUGAUAUCAAGCUACUACGUCA | 0.000953 ± 0.008 | 0.000686 ± 0.0081 | 0.000571 ± 0.0039
GGAGACCUAUGAUAUGUUGCUACUACCACA | 0.000405 ± 0.01 | 0.000902 ± 0.0041 | 0.000696 ± 0.0042

Three entries from above, with tabs:
Sequence	pre-steady-state target cleavage rate [1]	pre-steady-state target cleavage rate [2]	pre-steady-state target cleavage rate [3]
GGAGACCUAUGAUUACAACCUAGAUCCUCA	0.00125 ± 0.0056	0.000497 ± 0.0055	0.000227 ± 0.0092
GGAGACCUAUGUAUACAACCUACUUCGUCA	0.0106 ± 0.0032	0.00233 ± 0.003	0.000178 ± 0.013
GGAGACCUAUGAUAACACACCUACUACCUCA	0.000501 ± 0.015	0.000145 ± 0.015	0.000742 ± 0.01

Source: the supplement of paper PMC10338343
